The results in this text go back to US20240247072A1 (KEYMED BIOSCIENCES, published 2024).

These are yes or no findings as the source states them, for the method shown. Some binding calls cover weakened binding; strength is not graded here.

This assay has as its target T1, human CD70, full length, on CHO cells (CHO-human CD70-B07) (human) (UniProt P32970).
T1 sequence (looked up): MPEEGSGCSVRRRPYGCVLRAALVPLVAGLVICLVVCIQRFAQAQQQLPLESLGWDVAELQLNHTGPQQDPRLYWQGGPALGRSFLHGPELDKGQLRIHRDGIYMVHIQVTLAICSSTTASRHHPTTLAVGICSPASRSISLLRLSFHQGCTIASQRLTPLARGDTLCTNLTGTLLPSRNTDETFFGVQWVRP
The experiment in a line: flow cytometry on CHO-human CD70 cells. In general terms: In flow cytometry, cells or beads pass a laser one at a time.

B1: humanized antibody Ab004 (IgG1 wild type) (antibody, V domains shown)
VH: QVQLVQSGSELKKPGASVKVSCKASGYTFTNYGMNWVRQAPGQGLEWMGWINTYTGEPTYADGFTGRFVFSLDTSASTAYLQISSLKAEDTAVYFCAREEDYRYVFNYWGQGTLVTVSS
VL: DIQMTQSPSSLSASVGDRVTITCQASQDISNYLNWYQQKPGKAPKLLIYDTSRLHAGVPSRFSGSGSGTDYTFTISSLQPEDIATYFCQQGVTLPLTFGQGTKLEIK
notes: also called Ab004 IgG1 wt; h39H5 VHv2 + h39H5 VKv1
For B1, the binding result is given as “binds”.
